This test has as its target T1, human BMP-4 (human) (UniProt P12644).
T1 sequence (looked up): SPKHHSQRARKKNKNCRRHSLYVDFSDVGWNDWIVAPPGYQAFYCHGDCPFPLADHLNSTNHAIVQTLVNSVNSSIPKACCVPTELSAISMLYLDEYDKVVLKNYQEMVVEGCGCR
The test can be described thus: competition with DCR5-myc3 for binding to hBMP4, co-immunoprecipitation with 9E10 beads.

Results on 1 molecule are retold here after patent publication US20040106134A1 (Regeneron, published 2004).

Results are given in words; binding and its absence hold for the method and conditions named. In cells and extracts the contact can be indirect. Some binding calls cover weakened binding; strength is not graded here.

B1: Human DCR5 expressed in E. Coli, purified and refolded (protein)
chain: MSRKNRPAGAIPSPYKDGSSNNSERWQHQIKEVLASSQEALVVTERKYLKSDWCKTQPLRQTVSEEGCRSRTILNRFCYGQCNSFYIPRHVKKEEESFQSCAFCKPQRVTSVLVELECPGLDPPFRLKKIQKVKQCRCMSVNLSDSDKQ
For the molecule B1, the binding entry is “binds”.
